Our source for the cell number change and AC50 values is PubChem BioAssay AID2685 (National Center for Advancing Translational Sciences (NCATS), 2010).

The structures appear in SMILES notation. The list shows a part of the results. The main result of the screen is listed elsewhere. These columns were measured beside it and carry no call. Most of these compounds were active or inconclusive in the main read-out, so they are no random draw. The note in brackets gives the kind of curve behind each potency; many fits are weak.

Usually AC50 stands for the concentration giving half of the maximal activity seen. A higher AC50 goes with activity only at high concentration.

The nature of the assay: qHTS Assay for Lipid Storage Modulators in Drosophila S3 Cells.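 For cell number change: cells counted by Cell Tracker Red CMTPX staining in the red channel.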 The following applies: BODIPY lipid droplet fluorescence, 18-24 h; for cell number change: measured here: cell count max response, cells fed with added oleic acid. In outline:
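Drosophila S3 cells loaded with oleic acid (400 uM, as added) and compounds at several concentrations; lipid droplets imaged by 488-nm laser-scanning cytometry, 500–530 nm intensity and object ratio to cell channel. Percent activity normalized to 20 uM Triacsin C.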
Background: Quantitative high-throughput screening tests each substance at several concentrations.

[1] abbreviates: measured here: lipid fluorescence (Fed channel) AC50, cells fed with added oleic acid.
Setting [2] is: measured here: cell number channel AC50, cells fed with added oleic acid.

With `CCCCn1c(N)c(N(CC(C)C)C(=O)c2c(CC)noc2C)c(=O)[nH]c1=O`, the cell number change is -9.94%. Under setting [1], the AC50 was 23.1 µM [rising, single point]. As for `Cc1ccc(-c2nc3ccsc3c(=O)[nH]2)cc1`, the cell number change is 5.83%.

Consider `Cc1nn(C(=O)Cn2cc([N+](=O)[O-])cn2)c(C)c1Cl`, for which the cell number change was determined as 5.54%. Turning to `O=C(Cc1ccc2cccnc2c1)c1ccc(O)cc1O`, the cell number change is -46.2%. Moreover, the AC50 under setting [2] was 23.1 µM [falling, single point]. Also, under setting [1], the AC50 is 20.6 µM [falling, partial curve]. `CCn1c2ccccc2c2cc(NC(=S)N3CCOCC3)ccc21`: the cell number change is -19.3%. The AC50 under setting [1] is 0.259 µM [falling, full curve, poor fit]. In the case of `Cc1cc(NCc2ccco2)n2c(nc3ccccc32)c1C#N`, the cell number change is -3.53%. Further, the AC50 under setting [1] is 4.11 µM [falling, single point]. For `Cc1cc(NC(=S)NC(=O)c2ccco2)c2ccccc2n1`, under setting [2], the AC50 was 6.51 µM [rising, single point]. In the case of `Cc1ccc(-n2c(C)cc(C)c(C#N)c2=O)cc1Cl`, the cell number change is -1.45%. Moreover, the half-maximal activity concentration (AC50) under setting [1] is 0.0651 µM [rising, full curve].

In the case of `Cc1ccc(S(=O)(=O)NNc2nc3ccccc3nc2C(F)(F)F)cc1`, the cell number change was 65.9%. Further, under setting [2], the AC50 is 29.1 µM [rising, single point]. Regarding `N/C(=N\OC(=O)CCC1CCCCC1)c1ccccn1`, the cell number change is -9.9%. Also, the concentration at half-maximal activity (AC50) under setting [2] is 3.66 µM [rising, single point]. Consider `O=c1/c(=C/c2ccc(CNS(=O)(=O)c3ccccc3)o2)sc2n1CCN=2`, for which the cell number change was determined as 24.8%. Besides, the AC50 under setting [2] is 1.16 µM [rising, full curve, poor fit]. In addition, the AC50 under setting [1] is 0.731 µM [rising, single point]. Regarding `COCCCNC(=O)C(C#N)c1nc2ccccc2nc1N1CCCC1` (configuration not stated), the cell number change came out at 2.33%. Regarding `CCCCn1c(SCC(=O)Nc2cc(C)on2)nc2cc(S(N)(=O)=O)ccc21`, the cell number change was -27.4%. In addition, the concentration at half-maximal activity (AC50) under setting [1] was 0.146 µM [falling, full curve, poor fit]. As to `C/C(=N/NC(=O)c1ccc2c(c1)OCO2)c1cccc([N+](=O)[O-])c1`, the cell number change is -3.12%. The AC50 under setting [1] was 6.51 µM [rising, single point]. For `COc1ccc(C(=O)CCNc2ccc3c(c2)OCCO3)cc1`, the cell number change was 25.6%. For the compound `CCCCn1c(N)c(N(CCOC)C(=O)c2ccc3c(c2)OCCO3)c(=O)[nH]c1=O`, the cell number change is -100%. In addition, the AC50 under setting [2] is 29.1 µM [falling, partial curve, poor fit]. With `COc1cc(N)c(C(=O)c2nccc3cc(OC)c(OC)cc23)cc1OC`, the cell number change worked out at 31.8%. Moreover, the AC50 under setting [2] is 29.1 µM [rising, single point]. In the case of `Cc1ccc(-c2ccc(C(=O)NCCCNC(=O)c3cnccn3)o2)cc1Cl`, the cell number change was 9.21%. On to `COc1cc(CCC(=O)Nc2cccc(S(=O)(=O)N(C)C)c2)cc(OC)c1OC`, for which the cell number change was -48.9%. Further, the AC50 under setting [2] was 0.651 µM [falling, full curve]. Also, the AC50 under setting [1] was 7.31 µM [falling, partial curve]. In the case of `CCOC(=O)CN1C(=O)C(=O)N(Cc2ccccc2F)C1=O`, the cell number change is -2.99%. The AC50 under setting [1] is 0.13 µM [falling, full curve, poor fit]. `COc1cc2c(cc1OC)C(C)N(C(=O)c1cc3c(C)cc(C)cc3[nH]1)CC2` (configuration not stated): the cell number change came to 19.5%. Besides, the half-maximal activity concentration (AC50) under setting [1] is 29.1 µM [rising, partial curve, poor fit].

`CC(C)Oc1ccc(CNC(=O)c2cc(S(=O)(=O)N3CCOCC3)cn2C)cc1`: the cell number change was -19.4%. As for `CC(C)(C)n1ncc2c(=O)n(Cc3ccccc3Br)cnc21`, the cell number change is -4.53%. For the same compound, the AC50 under setting [1] was 0.146 µM [rising, single point]. On to `Cc1ccc(S(=O)(=O)N2CCCC(C(=O)N(Cc3cccs3)C3CC3)C2)cc1` (configuration not stated), for which the cell number change was -23.1%. Besides, under setting [1], the AC50 is 11.6 µM [falling, partial curve]. Consider `CC(C)c1ccc(NC(=O)CN2C(=O)NC3(CCCC3)C2=O)cc1`, for which the cell number change worked out at 9.83%. The AC50 under setting [1] is 3.26 µM [rising, single point]. For the compound `O=C(CSc1nc2ccccc2c(=O)n1-c1ccccc1)NCc1ccco1`, the cell number change was -30.2%. Besides, under setting [2], the AC50 is 4.11 µM [falling, full curve, poor fit].

On to `COc1ccc(CN(Cc2cccn2C)C(=O)c2cc3cc(OC)ccc3[nH]2)cc1`, for which the cell number change amounted to 0.272%. Also, the AC50 under setting [2] was 0.461 µM [rising, full curve]. Under setting [1], the AC50 was 0.731 µM [rising, partial curve, poor fit]. On to `Fc1cccc(CSc2nc3ncccc3[nH]2)c1`, for which the cell number change is -18.6%. On to `CCc1ccccc1NC(=O)C(Cc1ccccc1)c1nn[nH]n1` (configuration not stated), for which the cell number change worked out at 4.74%. For the same compound, the AC50 under setting [2] is 0.651 µM [rising, single point]. As for `O=C(c1ccco1)N1CCN(Cc2nc3ccccc3c(=O)n2-c2ccc(F)cc2)CC1`, under setting [2], the AC50 is 1.84 µM [rising, partial curve]. As to `Cc1[nH]c2ccccc2c1C(Nc1nccs1)c1ccncc1` (configuration not stated), the AC50 under setting [1] is 0.231 µM [rising, partial curve]. For `Cc1ccc(S(=O)(=O)Nc2ccc(N3CCN(C)CC3)nc2)cc1`, the cell number change was -0.519%. Also, the AC50 under setting [1] is 2.06 µM [falling, full curve, poor fit]. For the compound `CCCCOC(=O)c1ccc(-c2ccc(/C=N/NC(=S)NCC)o2)cc1`, the AC50 under setting [2] is 3.26 µM [rising, partial curve]. In the case of `CC(OC(=O)c1ccc(NS(=O)(=O)c2ccc3[nH]c(=O)[nH]c3c2)cc1)C(=O)Nc1cccc(Cl)c1Cl` (configuration not stated), the cell number change was 9.11%. Besides, the AC50 under setting [1] was 7.31 µM [rising, partial curve, poor fit]. Take `O=C(O)c1cc(-c2cccnc2)nn1-c1ccccn1`: the cell number change was -8.08%. Under setting [2], the AC50 is 3.66 µM [falling, partial curve]. Moreover, under setting [1], the AC50 is 2.31 µM [falling, partial curve, poor fit].

Take `O=C(COC(=O)c1ccco1)Nc1nc2c(F)c(F)c(F)cc2s1`: the cell number change is -34.1%. In addition, the AC50 under setting [2] was 0.326 µM [falling, full curve, poor fit]. With `CCN(CC(=O)Nc1ccccc1C(F)(F)F)C(=O)c1ccc2c(c1)NC(=O)CS2`, the cell number change was -3.3%. For the same compound, the AC50 under setting [1] is 0.411 µM [rising, full curve, poor fit]. With `CCN1CCN(C(c2cccs2)C(C)NS(=O)(=O)c2ccc(F)cc2)CC1` (configuration not stated), the cell number change was -71.6%. In addition, the AC50 under setting [2] was 18.4 µM [falling, single point]. Regarding `O=[N+]([O-])c1ccc(S(=O)(=O)N2CCN=C2SCc2ccc(F)cc2)cc1`, the cell number change came to 18.8%. Under setting [1], the AC50 is 29.1 µM [rising, single point].
